Results: paper PMC10352258
Results are given in words; binding and its absence hold for the method and conditions named. Binding seen in cells or lysates may run through a third protein. A yes stands for co-enrichment or nearness to the bait. Other partners may have been found.

Protein sequences, listed by entry. Tags and fused reporters are not part of them.
UniProt O00560: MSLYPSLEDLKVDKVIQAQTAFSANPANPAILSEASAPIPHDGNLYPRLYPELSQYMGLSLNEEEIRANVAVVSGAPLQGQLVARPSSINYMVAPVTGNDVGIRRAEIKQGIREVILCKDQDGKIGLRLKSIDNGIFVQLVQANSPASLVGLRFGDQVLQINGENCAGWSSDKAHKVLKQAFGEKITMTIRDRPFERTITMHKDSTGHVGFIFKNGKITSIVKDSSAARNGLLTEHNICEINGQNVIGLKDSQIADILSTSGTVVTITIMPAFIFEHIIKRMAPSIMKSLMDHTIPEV

Biological target: exogenous HSP90 (HSP90 overexpression) (UniProt P07900)
Test: affinity purification with mass spectrometry; IP-MS in KYSE150 cells with HSP90 overexpression; Orbitrap Fusion Lumos

- binding: binds
Substance: syndecan binding protein (SDCBP), endogenous (from UniProt O00560 1-298)
